# Several values for one entry are separate records, joined by “and”; a condition that tells them apart may be missing. Equal values may be shown once. The campaign covered roughly 320,000 compounds. About 740 (0.23%) were called active. Inconclusive results, whose numbers are uncertain, are shown with a selection of clear calls. The call rests on the fitted dose curve; in most records, active means well fitted activation curve with a large enough effect; inconclusive means small, poorly fitted or top-dose-only effect; inactive means no such curve, though single readings can be large or run the other way. A potency beside an inconclusive call is a rough fit, not a confirmed value.
# Assay: qHTS Assay for Small Molecule Inhibitors of Mitochondrial Division or Activators of Mitochondrial Fusion; further: nearly all actives have a fitted effect of over 45% in size
# Settings: S. cerevisiae fusion-defective mutant growth rescue, CellTiterGlo 48 h; series mostly up to 46.1 µM
# Excerpt: NIH Chemical Genomics Center [NCGC] NIH Molecular Libraries Probe Production centers Network [MLPCN] MLPCN Grant: MH081279-01 Assay Submitter (PI): Jodi M. Nunnari NCGC Assay Overview: The budding yeast S. cerevisiae is a powerful system to study mitochondrial fusion. Unlike other organisms, yeast cells without functional mitochondrial DNA (mtDNA) can be propagated and studied as long as they maintain a mitochondrial compartment and are provided with a fermentable carbon source. When mitochondrial fusion is blocked in yeast, mitochondrial tubules rapidly fragment and division continues unopposed. Under conditions where fusion is compromised in mammalian cells, nearly identical changes in mitochondrial structure have been observed. Thus, these findings indicate that steady state mitochondrial structure in cells is a characteristic and specific indicator of fusion activity. Mounting evidence has pointed to a connection between mitochondrial dynamics and apoptosis in mammalian cells. These studies indicate that in mammalian cells mitochondrial dynamics are more integrated into cellular processes than in yeast cells and have evolved not only to distribute the organelle but also to aid in the regulation of cellular homeostasis. Mitochondrial fusion proteins attenuate apoptosis by inhibiting the release of cytochrome c from mitochondria, in part by controlling cristae structures. Thus, small molecules that inhibit mitochondrial […] may promote apoptosis and potentially act as novel chemotherapeutics and stimulation of apoptosis has become an attractive target of anti-cancer therapies. To identify inhibitors of mitochondrial division, we exploit the growth phenotypes of mitochondrial fusion-defective mutants. The temperature sensitive fusion alleles, such as fzo1-1 and mgm1-5, cause mitochondrial membranes to fragment in cells under non-permissive conditions and cells lose mtDNA, and are unable to grow in the presence of non-fermentable carbon source glycerol. Inhibiting mitochondrial division rescues growth. We have developed and optimized a luminescence cell viability assay in 1536 well format for the identification of inhibitors in the yeast mitochondrial fusion-defective assay.
# The yeast glycerol stocks where kindly supplied by the laboratory of Dr. Jodi Nunnari, University of California, Davis. All yeast glycerol stock solutions were stored in single use aliquots at -80C. The CellTiterGlo luminescence reagent, containing luciferase and luciferin, were purchased from Promega, and the reagents were stored according to manufacturer's instructions. The Buffer components for the YPEG yeast growth medium were purchased from Sigma-Aldrich (St. Louis, MO). YPEG growth medium: 1% (w/v) yeast extract, 2% (w/v) Bacto-peptone, 3% Ethanol, 3% glycerol, 0.4mM Tryptophan, 0.36mM Adenine. qHTS Assay Protocol: 1.#Dispense 2.5 ul yeast growth medium per 1536 well plate. 2.#Transfer 23 nl per well of compound to plate. 3.#Dispense 2.5 ul yeast solution at appropriate seeding density per well. 4.#Incubate for 48 hours at 37C. 5.#Dispense 5 ul of CellTiterGlow solution per well. 6.#Incubate at ambient for 10 minutes. 7.#Read using bio-luminescence protocol on Viewlux.
# Potency means the concentration at half of the fitted maximal effect.
row,SMILES,Potency
1,COC(=O)c1cc(OC)c(OC)cc1NC(=O)c1ccc(OC)c(OC)c1,inactive
2,CCCCN(Cc1ccccc1)c1ncnc2nc[nH]c12,"inconclusive: 3.16 µM [activator, partial curve]"
3,Cc1nnc(SCC(=O)c2c[nH]c3ccccc23)n1C1CC1,inactive
4,CC1CCN(S(=O)(=O)c2ccc3c(c2)CC(C)N3C(=O)C2CCC2)CC1 (centres undefined),"inconclusive: 7.94 µM [activator, partial curve]"
5,COc1ccc(C2=NN(C(=O)c3ccccc3)C(c3ccc(OC)c(OC)c3)C2)c(OC(C)=O)c1 (centres undefined),"inconclusive: 15.8 µM [activator, partial curve]"
6,Cc1ccc(S(=O)(=O)Nc2ccc(Cl)cc2)cc1NC(=O)c1cc2c(s1)CCCC2,"inconclusive: 11.2 µM [activator, partial curve]"
7,O=C(O)c1cnc(-c2ccccc2)nc1Sc1ccccc1,inactive
8,Nc1cccc2c1C(=O)N(C(=O)c1cccc(S(=O)(=O)N3CCCC3)c1)C2=O,"inconclusive: 35.5 µM [activator, single point]"
9,CCCCCCn1c(=O)c(-c2ccccc2)c(O)c2ccccc21,"inconclusive: 20 µM [activator, single point]"
10,N#C/C(=C\c1ccc(Sc2ccc(Cl)cc2)o1)c1nc2ccccc2[nH]1,inactive
11,O=C(CCN1C(=O)C2C3CCC(C3)C2C1=O)OCC(=O)c1ccc(Br)cc1 (centres undefined),"inconclusive: 5.62 µM [activator, single point]"
12,N#Cc1ccc(-c2ccccc2)nc1SCC(=O)c1cc2ccccc2oc1=O,"inconclusive: 5.62 µM [activator, full curve]"
13,COc1ccc([N+](=O)[O-])cc1NC(=O)CSCc1ccc(Br)cc1,"inconclusive: 35.5 µM [activator, single point]"
14,COc1cc2c(cc1OC)C(NC(=O)C(F)(F)F)C/C2=N\O (centres undefined),"inconclusive: 22.4 µM [activator, partial curve]"
15,c1cnc(N2CCN(Cc3ccc4c(c3)OCO4)CC2)nc1,"inconclusive: 22.4 µM [activator, single point] and inconclusive: 8.2 µM [activator, partial curve, poor fit]"
16,CCC(C)NC(=O)CCC(=O)NNc1nc2ccccc2c2nc(C)nn12 (centres undefined),"inconclusive: 31.6 µM [activator, single point]"
17,N#Cc1cccc(NC(=O)COC(=O)CCc2nc3ccccc3c(=O)[nH]2)c1,"inconclusive: 14.1 µM [activator, partial curve]"
18,O=C(/C=C/c1cn(-c2ccccc2)nc1-c1ccccc1)Nc1ccc(C(=O)O)cc1,"inconclusive: 17.8 µM [activator, partial curve]"
19,Cc1ccc(C)c(CS(=O)(=O)c2cn(CC(=O)N3CCC(C)CC3)c3ccccc23)c1,"inconclusive: 12.6 µM [activator, single point]"
20,Fc1ccc(-c2csc3ncnc(N4CCc5ccccc5C4)c23)cc1,"inconclusive: 14.1 µM [activator, partial curve]"
21,CCCOC(=O)c1c(NC(=O)C2CCCO2)sc(C(=O)OC)c1C (centres undefined),"inconclusive: 12.6 µM [activator, partial curve]"
22,COc1ccccc1OCCn1cc(/C=N/NC(=O)c2ccncc2)c2ccccc21,inactive

row,SMILES,Potency
1,N#Cc1cccc(NC(=O)COC(=O)Cn2nc(-c3ccccc3)oc2=O)c1,inactive
2,S=c1[nH]c(-c2ccccc2)cs1,inactive
3,CCc1cccc(CC)c1C(O)c1cccnc1 (centres undefined),"inconclusive: 14.1 µM [activator, partial curve, poor fit]"
4,Nc1cccc(-c2cc(-c3ccccc3)nc(-c3cccc(N)c3)n2)c1,"inconclusive: 10 µM [activator, partial curve]"
5,COc1cccc(CNC(=O)c2ccc3c(c2)N(C)CCS3)c1OC,"inconclusive: 3.55 µM [activator, single point]"
6,O=C(c1ccc([N+](=O)[O-])s1)N1CCN(c2ccccc2)CC1,inactive
7,CCCN(CC1CC1)C(=O)CCc1nnc(CCc2c[nH]c3ccccc23)o1,inactive
8,O=C(Nc1cccc(NC(=O)c2c(F)cccc2F)n1)c1c(F)cccc1F,"inconclusive: 20 µM [activator, partial curve, poor fit]"
9,CCOC(=O)C(C(=O)OCC)c1cc(Br)c2noc3c2c1C(=O)c1ccccc1-3,inactive
10,CCNc1nc(NC(C)CC)nc(Oc2ccc(OCC)nn2)n1 (centres undefined),inactive
11,Cc1onc(-c2ccccc2)c1C(=O)OCC(=O)N(CC(C)C)c1c(N)n(Cc2ccccc2)c(=O)[nH]c1=O,inactive
12,Fc1ccccc1NC(=S)NCc1ccc(Cl)cc1,inactive
13,O=C(O)c1cccc(CSc2nc(-c3ccccc3)cc(C(F)(F)F)n2)c1,"inconclusive: 11.2 µM [activator, partial curve]"
14,NC(=O)c1ccsc1NC(=O)c1ccc(S(=O)(=O)N2CCCc3ccccc32)cc1,"inconclusive: 11.2 µM [activator, partial curve]"
15,CCc1cccc(NC(=O)c2sc3nc4n(c(=O)c3c2C)CCC4)c1,"inconclusive: 12.6 µM [activator, partial curve]"
16,CCCn1c(N2CCN(Cc3ccc(Cl)cc3)CC2)nc2ccccc21,"inconclusive: 11.2 µM [activator, partial curve]"
17,Cc1ccc(C(=O)NC(=S)N(C)C2CCCCC2)cc1Br,inactive
18,Nc1cccnc1-n1nc(C(F)(F)F)cc1C(F)(F)F,"inconclusive: 31.6 µM [activator, single point]"
19,CCOc1ccccc1NC(=O)C(=O)N/N=C/c1cc(Br)ccc1O,inactive
20,CCOC(=O)C1CCCN(C(=O)CN2C(=O)/C(=C/c3ccc(OC)cc3)Oc3ccccc32)C1 (centres undefined),"inconclusive: 12.6 µM [activator, partial curve]"
21,C=CCN1C(=O)C(Cc2ccc(SC(F)F)cc2)SC1=Nc1ccc(C(=O)O)cc1 (centres undefined),"inconclusive: 14.1 µM [activator, partial curve]"
22,O=C(NCc1cccs1)c1cc2c(s1)-c1ccccc1OC2,"inconclusive: 31.6 µM [activator, single point]"

# Ordered by formula weight (rising): some entries from above
row,SMILES,Potency
7,CCCN(CC1CC1)C(=O)CCc1nnc(CCc2c[nH]c3ccccc23)o1,inactive
13,O=C(O)c1cccc(CSc2nc(-c3ccccc3)cc(C(F)(F)F)n2)c1,"inconclusive: 11.2 µM [activator, partial curve]"
20,CCOC(=O)C1CCCN(C(=O)CN2C(=O)/C(=C/c3ccc(OC)cc3)Oc3ccccc32)C1 (centres undefined),"inconclusive: 12.6 µM [activator, partial curve]"

# Source: PubChem BioAssay AID485298 (National Center for Advancing Translational Sciences (NCATS), 2010)
